Publication PMC10867860
Results are given in words; binding and its absence hold for the method and conditions named. Some entries that bind do so weakly or less than the wild type.

Protein sequences, listed by entry. Tags and fused reporters are not part of them. Lines headed by an entry give the natural chain unless they say otherwise; changes in a name come on top. Chains listed by the source or under a name are the forms on record and can include a tag or linker.
UAF1 (res. 9-677, C-terminal RQKST replaced by a 21-residue extension) (Q8TAF3, form named): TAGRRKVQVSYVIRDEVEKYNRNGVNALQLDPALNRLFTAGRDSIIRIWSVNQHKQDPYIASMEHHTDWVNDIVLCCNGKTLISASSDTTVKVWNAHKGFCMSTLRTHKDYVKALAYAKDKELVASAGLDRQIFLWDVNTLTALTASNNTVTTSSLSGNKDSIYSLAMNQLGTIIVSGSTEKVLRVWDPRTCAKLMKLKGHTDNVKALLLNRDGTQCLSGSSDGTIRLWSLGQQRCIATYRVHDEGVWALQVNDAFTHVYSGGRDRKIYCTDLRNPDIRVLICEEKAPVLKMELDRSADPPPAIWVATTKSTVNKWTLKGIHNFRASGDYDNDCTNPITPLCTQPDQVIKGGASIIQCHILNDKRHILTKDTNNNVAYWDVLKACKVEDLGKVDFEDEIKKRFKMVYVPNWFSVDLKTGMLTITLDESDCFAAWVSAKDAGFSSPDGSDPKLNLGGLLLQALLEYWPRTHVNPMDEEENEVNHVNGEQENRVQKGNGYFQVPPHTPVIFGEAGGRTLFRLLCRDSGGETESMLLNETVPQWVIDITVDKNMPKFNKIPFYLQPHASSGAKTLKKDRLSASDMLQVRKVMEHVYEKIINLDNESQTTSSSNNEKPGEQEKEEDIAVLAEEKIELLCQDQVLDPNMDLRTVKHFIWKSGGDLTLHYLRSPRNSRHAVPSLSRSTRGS

Molecular target: UAF1 (res. 9-677, C-terminal RQKST replaced by a 21-residue extension) (UniProt Q8TAF3)
Test: co-purification after co-expression; USP1 (N-terminal His-tag) and UAF1 (N-terminal strep-tag) coexpressed in Sf9 cells and copurified according to Dharadhar et al (2021)

Binder | binding
USP1^D751A (res. 21-785, G670A + G671A) (enzyme, UniProt O94782 21-785) NRLSLKFFQKKETKRALDFTDSQENEEKASEYRASEIDQVVPAAQSSPINCEKRENLLPFVGLNNLGNTCYLNSILQVLYFCPGFKSGVKHLFNIISRKKEALKDEANQKDKGNCKEDSLASYELICSLQSLIISVEQLQASFLLNPEKYTDELATQPRRLLNTLRELNPMYEGYLQHDAQEVLQCILGNIQETCQLLKKEEVKNVAELPTKVEEIPHPKEEMNGINSIEMDSMRHSEDFKEKLPKGNGKRKSDTEFGNMKKKVKLSKEHQSLEENQRQTRSKRKATSDTLESPPKIIPKYISENESPRPSQKKSRVKINWLKSATKQPSILSKFCSLGKITTNQGVKGQSKENECDPEEDLGKCESDNTTNGCGLESPGNTVTPVNVNEVKPINKGEEQIGFELVEKLFQGQLVLRTRCLECESLTERREDFQDISVPVQEDELSKVEESSEISPEPKTEMKTLRWAISQFASVERIVGEDKYFCENCHHYTEAERSLLFDKMPEVITIHLKCFAASGLEFDCYGGGLSKINTPLLTPLKLSLEEWSTKPTNDSYGLFAVVMHSGITISSGHYTASVKVTDLNSLELDKGNFVVDQMCEIGKPEPLNEEEARGVVENYNDEEVSIRVGGNTQPSKVLNKKNVEAIGLLAAQKSKADYELYNKASNPDKVASTAFAENRNSETSDTTGTHESDRNKESSDQTGINISGFENKISYVVQSLKEYEGKWLLFADSEVKVTEEKDFLNSLSPSTSPTSTPYLLFYKKLERPLSNLEPAVSRHAVPSLSRSTRGS | binds
USP1^D752A (res. 21-785, G670A + G671A) (enzyme, UniProt O94782 21-785) NRLSLKFFQKKETKRALDFTDSQENEEKASEYRASEIDQVVPAAQSSPINCEKRENLLPFVGLNNLGNTCYLNSILQVLYFCPGFKSGVKHLFNIISRKKEALKDEANQKDKGNCKEDSLASYELICSLQSLIISVEQLQASFLLNPEKYTDELATQPRRLLNTLRELNPMYEGYLQHDAQEVLQCILGNIQETCQLLKKEEVKNVAELPTKVEEIPHPKEEMNGINSIEMDSMRHSEDFKEKLPKGNGKRKSDTEFGNMKKKVKLSKEHQSLEENQRQTRSKRKATSDTLESPPKIIPKYISENESPRPSQKKSRVKINWLKSATKQPSILSKFCSLGKITTNQGVKGQSKENECDPEEDLGKCESDNTTNGCGLESPGNTVTPVNVNEVKPINKGEEQIGFELVEKLFQGQLVLRTRCLECESLTERREDFQDISVPVQEDELSKVEESSEISPEPKTEMKTLRWAISQFASVERIVGEDKYFCENCHHYTEAERSLLFDKMPEVITIHLKCFAASGLEFDCYGGGLSKINTPLLTPLKLSLEEWSTKPTNDSYGLFAVVMHSGITISSGHYTASVKVTDLNSLELDKGNFVVDQMCEIGKPEPLNEEEARGVVENYNDEEVSIRVGGNTQPSKVLNKKNVEAIGLLAAQKSKADYELYNKASNPDKVASTAFAENRNSETSDTTGTHESDRNKESSDQTGINISGFENKISYVVQSLKEYEGKWLLFDASEVKVTEEKDFLNSLSPSTSPTSTPYLLFYKKLERPLSNLEPAVSRHAVPSLSRSTRGS | binds
USP1^D751N (res. 21-785, G670A + G671A) (enzyme, UniProt O94782 21-785) NRLSLKFFQKKETKRALDFTDSQENEEKASEYRASEIDQVVPAAQSSPINCEKRENLLPFVGLNNLGNTCYLNSILQVLYFCPGFKSGVKHLFNIISRKKEALKDEANQKDKGNCKEDSLASYELICSLQSLIISVEQLQASFLLNPEKYTDELATQPRRLLNTLRELNPMYEGYLQHDAQEVLQCILGNIQETCQLLKKEEVKNVAELPTKVEEIPHPKEEMNGINSIEMDSMRHSEDFKEKLPKGNGKRKSDTEFGNMKKKVKLSKEHQSLEENQRQTRSKRKATSDTLESPPKIIPKYISENESPRPSQKKSRVKINWLKSATKQPSILSKFCSLGKITTNQGVKGQSKENECDPEEDLGKCESDNTTNGCGLESPGNTVTPVNVNEVKPINKGEEQIGFELVEKLFQGQLVLRTRCLECESLTERREDFQDISVPVQEDELSKVEESSEISPEPKTEMKTLRWAISQFASVERIVGEDKYFCENCHHYTEAERSLLFDKMPEVITIHLKCFAASGLEFDCYGGGLSKINTPLLTPLKLSLEEWSTKPTNDSYGLFAVVMHSGITISSGHYTASVKVTDLNSLELDKGNFVVDQMCEIGKPEPLNEEEARGVVENYNDEEVSIRVGGNTQPSKVLNKKNVEAIGLLAAQKSKADYELYNKASNPDKVASTAFAENRNSETSDTTGTHESDRNKESSDQTGINISGFENKISYVVQSLKEYEGKWLLFNDSEVKVTEEKDFLNSLSPSTSPTSTPYLLFYKKLERPLSNLEPAVSRHAVPSLSRSTRGS | binds

The next lines start with the values.

binding | Binder
binds | USP1 (res. 21-785, G670A + G671A) (enzyme, UniProt O94782 21-785) NRLSLKFFQKKETKRALDFTDSQENEEKASEYRASEIDQVVPAAQSSPINCEKRENLLPFVGLNNLGNTCYLNSILQVLYFCPGFKSGVKHLFNIISRKKEALKDEANQKDKGNCKEDSLASYELICSLQSLIISVEQLQASFLLNPEKYTDELATQPRRLLNTLRELNPMYEGYLQHDAQEVLQCILGNIQETCQLLKKEEVKNVAELPTKVEEIPHPKEEMNGINSIEMDSMRHSEDFKEKLPKGNGKRKSDTEFGNMKKKVKLSKEHQSLEENQRQTRSKRKATSDTLESPPKIIPKYISENESPRPSQKKSRVKINWLKSATKQPSILSKFCSLGKITTNQGVKGQSKENECDPEEDLGKCESDNTTNGCGLESPGNTVTPVNVNEVKPINKGEEQIGFELVEKLFQGQLVLRTRCLECESLTERREDFQDISVPVQEDELSKVEESSEISPEPKTEMKTLRWAISQFASVERIVGEDKYFCENCHHYTEAERSLLFDKMPEVITIHLKCFAASGLEFDCYGGGLSKINTPLLTPLKLSLEEWSTKPTNDSYGLFAVVMHSGITISSGHYTASVKVTDLNSLELDKGNFVVDQMCEIGKPEPLNEEEARGVVENYNDEEVSIRVGGNTQPSKVLNKKNVEAIGLLAAQKSKADYELYNKASNPDKVASTAFAENRNSETSDTTGTHESDRNKESSDQTGINISGFENKISYVVQSLKEYEGKWLLFDDSEVKVTEEKDFLNSLSPSTSPTSTPYLLFYKKLERPLSNLEPAVSRHAVPSLSRSTRGS
binds | USP1^D752N (res. 21-785, G670A + G671A) (enzyme, UniProt O94782 21-785) NRLSLKFFQKKETKRALDFTDSQENEEKASEYRASEIDQVVPAAQSSPINCEKRENLLPFVGLNNLGNTCYLNSILQVLYFCPGFKSGVKHLFNIISRKKEALKDEANQKDKGNCKEDSLASYELICSLQSLIISVEQLQASFLLNPEKYTDELATQPRRLLNTLRELNPMYEGYLQHDAQEVLQCILGNIQETCQLLKKEEVKNVAELPTKVEEIPHPKEEMNGINSIEMDSMRHSEDFKEKLPKGNGKRKSDTEFGNMKKKVKLSKEHQSLEENQRQTRSKRKATSDTLESPPKIIPKYISENESPRPSQKKSRVKINWLKSATKQPSILSKFCSLGKITTNQGVKGQSKENECDPEEDLGKCESDNTTNGCGLESPGNTVTPVNVNEVKPINKGEEQIGFELVEKLFQGQLVLRTRCLECESLTERREDFQDISVPVQEDELSKVEESSEISPEPKTEMKTLRWAISQFASVERIVGEDKYFCENCHHYTEAERSLLFDKMPEVITIHLKCFAASGLEFDCYGGGLSKINTPLLTPLKLSLEEWSTKPTNDSYGLFAVVMHSGITISSGHYTASVKVTDLNSLELDKGNFVVDQMCEIGKPEPLNEEEARGVVENYNDEEVSIRVGGNTQPSKVLNKKNVEAIGLLAAQKSKADYELYNKASNPDKVASTAFAENRNSETSDTTGTHESDRNKESSDQTGINISGFENKISYVVQSLKEYEGKWLLFDNSEVKVTEEKDFLNSLSPSTSPTSTPYLLFYKKLERPLSNLEPAVSRHAVPSLSRSTRGS
